Test results as given in PMC12794514.
These are yes or no findings as the source states them, for the method shown. In cells and extracts the contact can be indirect. Some binding calls cover weakened binding; strength is not graded here. Tags and fused reporters may be left off the sequences shown.

What was measured:
[1] = target: T1, SF-tagged ZDHHC1 (UniProt Q8WTX9); experiment: co-IP; Supplemental Fig. S4G, I: ZDHHC or ZDHHS immunoprecipitated, MTDH detected; NETN buffer, anti-Flag affinity gel or anti-HA magnetic beads, 4°C overnight
T1 sequence: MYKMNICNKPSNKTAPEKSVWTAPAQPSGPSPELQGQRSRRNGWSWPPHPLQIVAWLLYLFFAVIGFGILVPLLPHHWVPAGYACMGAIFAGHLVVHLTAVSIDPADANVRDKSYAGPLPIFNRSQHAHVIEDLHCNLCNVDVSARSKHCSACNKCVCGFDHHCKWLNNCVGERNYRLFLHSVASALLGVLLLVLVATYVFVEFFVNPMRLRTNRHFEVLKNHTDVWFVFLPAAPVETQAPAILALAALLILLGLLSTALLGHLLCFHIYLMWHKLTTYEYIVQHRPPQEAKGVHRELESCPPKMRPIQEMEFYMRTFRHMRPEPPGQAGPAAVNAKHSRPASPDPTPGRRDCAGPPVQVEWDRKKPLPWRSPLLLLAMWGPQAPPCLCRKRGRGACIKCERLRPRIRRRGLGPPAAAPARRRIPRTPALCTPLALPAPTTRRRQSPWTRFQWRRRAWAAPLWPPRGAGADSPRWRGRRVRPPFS

[2] = target: T2, MTDH as used in the reciprocal co-immunoprecipitations of Supplemental Fig. S4G-J (human) (UniProt Q86UE4); experiment: co-IP; Supplemental Fig. S4H, J: reciprocal, MTDH immunoprecipitated, ZDHHC or ZDHHS detected; NETN buffer, anti-Flag affinity gel or anti-HA magnetic beads, 4°C overnight
T2 sequence: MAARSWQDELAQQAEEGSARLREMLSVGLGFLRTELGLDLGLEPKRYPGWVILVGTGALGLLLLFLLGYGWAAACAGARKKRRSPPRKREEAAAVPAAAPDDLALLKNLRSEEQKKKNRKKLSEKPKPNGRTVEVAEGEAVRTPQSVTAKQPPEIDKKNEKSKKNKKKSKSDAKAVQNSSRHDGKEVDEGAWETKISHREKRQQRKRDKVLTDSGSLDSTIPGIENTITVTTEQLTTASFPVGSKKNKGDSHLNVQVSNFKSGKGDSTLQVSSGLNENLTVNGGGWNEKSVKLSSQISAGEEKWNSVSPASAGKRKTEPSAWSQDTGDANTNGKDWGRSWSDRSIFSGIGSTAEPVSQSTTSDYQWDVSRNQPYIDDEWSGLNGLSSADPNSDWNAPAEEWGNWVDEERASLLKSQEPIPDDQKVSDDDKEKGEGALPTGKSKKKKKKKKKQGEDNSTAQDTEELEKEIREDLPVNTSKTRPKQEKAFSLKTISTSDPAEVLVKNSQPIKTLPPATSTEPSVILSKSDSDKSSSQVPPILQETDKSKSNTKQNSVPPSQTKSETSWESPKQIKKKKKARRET

B1: MTDH as used in the reciprocal co-immunoprecipitations of Supplemental Fig. S4G-J (protein, UniProt Q86UE4 1-582)
chain: T2 sequence
In the case of B1, the binding [1] is reported as “binds”.

B2: SF-tagged ZDHHC1 (enzyme, UniProt Q8WTX9 1-485)
chain: T1 sequence
In the case of B2, the binding [2] is reported as “binds”.
